Data as given in PubChem BioAssay AID602196 (INSERM, 2012).

Screen: 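Knock-downs that protect lung cancer cells from cisplatin or sensitise them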
System: human A549 lung cancer cells
Knock-down reagent: siRNA pair against human genes
Timing: 48 h transfection before cisplatin; time from cisplatin to read-out not stated
Treatment: cisplatin at a dose killing half of control-siRNA cells; exact dose and duration not given
Measured: 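Cisplatin cell death as a shift from the 50% death seen with control siRNA; siRNAs toxic or growth-blocking alone scored 0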
Scale: two-siRNA summed score (-2 to +2): higher = both siRNAs protect from cisplatin killing; -2 means both sensitise; mean protection from cisplatin (shift in death) and protection from cisplatin (shift in death), siRNA C: higher = protection from cisplatin killing
Hit rule: 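Each siRNA scores 0 if harmful alone by LDH or WST-1, otherwise +1 if it reduces and -1 if it increases cisplatin killing; a gene is active when both siRNAs agree (sum +2 or -2)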
Calls: active = both siRNAs shift cisplatin killing the same way; inactive = no consistent shift, or siRNA harmful alone
The whole screen tested about 23,000 reagents; this is a random part of them. Over the whole deposit, 455 (2%) got an active call. 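Active includes both protection and sensitisation; some change values fall well beyond the stated -50 to +50 range.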 The numbers tell different reagents against one gene apart. Not all columns of the deposit are shown. Reagent sequences are not shown. Not given: the amount of reagent.

The first 7 records, to show the layout:
gene knocked down | reagent no. | two-siRNA summed score (-2 to +2) | mean protection from cisplatin (shift in death) (%) | protection from cisplatin (shift in death), siRNA C (%) | Outcome
DCAF6 | 1 | 0 | -1.1 | 0.8 | inactive
DCAF6 | 2 | 0 | 7.7 | 9.4 | inactive
LOC388416 | 1 | 0 | 20.4 | 2.8 | inactive
CDKN2D | 1 | -1 | -11.7 | -18.2 | inactive
MXRA5 | 1 | 0 | -3 | -4.4 | inactive
RALBP1 | 1 | 1 | 10.9 | 5.6 | inactive
ZFP69B | 1 | 0 | 9.9 | 10.9 | inactive

Results, from the start:
gene knocked down | reagent no. | two-siRNA summed score (-2 to +2) | mean protection from cisplatin (shift in death) (%) | protection from cisplatin (shift in death), siRNA C (%) | Outcome
DCAF6 | 1 | 0 | -1.1 | 0.8 | inactive
DCAF6 | 2 | 0 | 7.7 | 9.4 | inactive
LOC388416 | 1 | 0 | 20.4 | 2.8 | inactive
CDKN2D | 1 | -1 | -11.7 | -18.2 | inactive
MXRA5 | 1 | 0 | -3 | -4.4 | inactive
RALBP1 | 1 | 1 | 10.9 | 5.6 | inactive
ZFP69B | 1 | 0 | 9.9 | 10.9 | inactive
HOXB3 | 1 | 0 | -1 | -8.3 | inactive
OPA1 | 1 | 0 | 3.6 | 2.8 | inactive
SPTBN1 | 1 | 0 | 0.8 | -6.8 | inactive
LOC388595 | 1 | 0 | -7.6 | -7.7 | inactive
CLCN6 | 1 | 0 | 1.9 | 6 | inactive
LINC02120 | 1 | 0 | 9.2 | 13.5 | inactive
POLG | 1 | 0 | -13.5 | -28 | inactive
ITGAD | 1 | 0 | -2.5 | 2.6 | inactive
TSPAN8 | 1 | 0 | -3.8 | -8.7 | inactive
TMEM38A | 1 | -1 | -5.7 | -13.8 | inactive
USP22 | 1 | 0 | 9.1 | 14.1 | inactive
LMAN2L | 1 | 0 | 8.9 | 5.8 | inactive
SMAD6 | 1 | -1 | -17.3 | -15.2 | inactive
DLGAP1 | 1 | 0 | 3.3 | 15.7 | inactive
LOC442574 | 1 | 0 | -0.4 | -0.9 | inactive
SLC22A2 | 1 | 1 | 11.6 | 16.4 | inactive
UQCRFS1 | 1 | 1 | 14.1 | 6.3 | inactive
LOC338750 | 1 | 0 | 17.1 | 14.4 | inactive
EHMT2 | 1 | 0 | -18.8 | -12.2 | inactive
F11-AS1 | 1 | 0 | 7.1 | 9.9 | inactive
DDX28 | 1 | 0 | 13.8 | 9.6 | inactive
LOC285429 | 1 | 0 | -2.5 | -10.7 | inactive
LRTM1 | 1 | 0 | 4 | -3.5 | inactive
LOC441816 | 1 | 0 | 9.4 | 7.1 | inactive
RMP64 | 1 | 0 | 9.5 | 5.4 | inactive
HSP90AA2P | 1 | 0 | 13.1 | 11.6 | inactive
PAPSS2 | 1 | 0 | 0.2 | 0.8 | inactive
GPR12 | 1 | 0 | 3.6 | -6.1 | inactive
ST14 | 1 | 0 | 0.9 | 1.1 | inactive
MAP7 | 1 | 0 | -4.4 | 11.6 | inactive
LOC200475 | 1 | 0 | 5.2 | 7.4 | inactive
HMGB1 | 1 | 0 | 3.5 | 9.9 | inactive
ADRB1 | 1 | -1 | -8.9 | 6.4 | inactive
CXCL14 | 1 | 0 | 4.5 | 10.7 | inactive
TRPV3 | 1 | 1 | -2.6 | 24.7 | inactive
LOC391555 | 1 | 0 | -6.3 | -17.9 | inactive
TMEM14B | 1 | 0 | -6 | 6 | inactive
MAP3K2 | 1 | 1 | 17 | 27.2 | inactive
GAL3ST3 | 1 | -1 | -12.2 | 1.3 | inactive
TTC32 | 1 | 0 | -3.5 | 2.3 | inactive
RALGAPA1 | 1 | 1 | 18.4 | 13.5 | inactive
PYGL | 1 | 0 | 1.3 | -0.5 | inactive
PPP1R13L | 1 | 0 | 6.4 | 7.1 | inactive
TMEM168 | 1 | 0 | -3.3 | 0.7 | inactive
TYW2 | 1 | 0 | 2.6 | 0.3 | inactive
ZNF273 | 1 | 1 | 9.1 | 0.8 | inactive
ZNF273 | 2 | 1 | 13.2 | 14.4 | inactive
FAH | 1 | 0 | 10.7 | 20.6 | inactive
JAK1 | 1 | 0 | 10 | 11.3 | inactive
TNPO2 | 1 | 0 | 0 | -0.6 | inactive
